From publication PMC5339883
Residue numbers refer to the chain shown, from its start. These are yes or no findings as the source states them, for the method shown. Tags and fused reporters may be left off the sequences shown.

What was measured:
[1] = target: T1, GST–Rab17Q77L (UniProt Q9H0T7); experiment: pull-down; GST–Rab17 constructs on glutathione beads; equal quantities of Vamp8 and Rab17 incubated for 16 h at 4°C; beads washed twice with PBS; NuPAGE gel, Coomassie stain; both purified
T1 sequence: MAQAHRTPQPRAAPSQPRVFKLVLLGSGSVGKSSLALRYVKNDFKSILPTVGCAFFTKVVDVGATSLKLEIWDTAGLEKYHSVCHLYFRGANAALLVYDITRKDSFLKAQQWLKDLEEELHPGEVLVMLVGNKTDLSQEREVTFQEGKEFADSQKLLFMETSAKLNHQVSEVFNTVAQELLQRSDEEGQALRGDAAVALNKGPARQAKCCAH

[2] = target: T2, GST-tagged Rab17 (wild type) (UniProt Q9H0T7); experiment: as above
T2 sequence: T1 sequence with L77Q

- binding [1]: no binding
- binding [2]: no binding
B1: cytoplasmic region of Vamp8 (domain or fragment, UniProt Q9BV40 1-74)
chain: MEEASEGGGNDRVRNLQSEVEGVKNIMTQNVERILARGENLEHLRNKTEDLEATSEHFKTTSQKVARKFWWKNV
